# Measurements: paper PMC1079803
# Legend:
# [1] = molecular target: IporinΔN847ΔC1239 (bait) (human); assay: two-hybrid; co-transformation of bait (pAS2-1) and prey (pGADT7) constructs in yeast Y190; plates lacking Trp, Leu and His with 50 mM 3-aminotriazol (his3), 30°C for 5-7 days; β-galactosidase filter lift with X-gal (lacZ)
# [2] = molecular target: GST-Iporin ΔN847ΔC1239 (human); assay: pull-down; GST fusion proteins on glutathione-Sepharose beads; extract of untransfected HeLa cells, LB buffer, without goat serum; Western blot with GM130 antibodies; only the target purified
# [3] = molecular target: GST-Iporin ΔN1430 (human); assay: as above
binding [1],binding [2],binding [3],Binder
binds,–,–,"GM130 (prey) (protein, UniProt Q08379 1-1002) MWPQPRLPPRPAMSEETRQSKLAAAKKKLREYQQRNSPGVPTGAKKKKKIKNGSNPETTTSGGCHSPEDTPKDNAATLQPSDDTVLPGGVPSPGASLTSMAASQNHDADNVPNLMDETKTFSSTESLRQLSQQLNGLVCESATCVNGEGPASSANLKDLESRYQQLAVALDSSYVTNKQLNITIEKLKQQNQEITDQLEEEKKECHQKQGALREQLQVHIQTIGILVSEKAELQTALAHTQHAARQKEGESEDLASRLQYSRRRVGELERALSAVSTQQKKADRYNKELTKERDALRLELYKNTQSNEDLKQEKSELEEKLRVLVTEKAGMQLNLEELQKKLEMTELLLQQFSSRCEAPDANQQLQQAMEERAQLEAHLGQVMESVRQLQMERDKYAENLKGESAMWRQRMQQMSEQVHTLREEKECSMSRVQELETSLAELRNQMAEPPPPEPPAGPSEVEQQLQAEAEHLRKELEGLAGQLQAQVQDNEGLSRLNREQEERLLELERAAELWGEQAEARRQILETMQNDRTTISRALSQNRELKEQLAELQSGFVKLTNENMEITSALQSEQHVKRELGKKLGELQEKLSELKETVELKSQEAQSLQQQRDQYLGHLQQYVAAYQQLTSEKEVLHNQLLLQTQLVDQLQQQEAQGKAVAEMARQELQETQERLEAATQQNQQLRAQLSLMAHPGEGDGLDREEEEDEEEEEEEAVAVPQPMPSIPEDLESREAMVAFFNSAVASAEEEQARLRGQLKEQRVRCRRLAHLLASAQKEPEAAAPAPGTGGDSVCGETHRALQGAMEKLQSRFMELMQEKADLKERVEELEHRCIQLSGETDTIGEYIALYQSQRAVLKERHREKEEYISRLAQDKEEMKVKLLELQELVLRLVGDRNEWHGRFLAAAQNPADEPTSGAPAPQELGAANQQGDLCEVSLAGSVEPAQGEAREGSPRDNPTAQQIMQLLREMQNPRERPGLGSNPCIPFFYRADENDEVKITVI"
–,binds,no binding,"endogenous GM130 (protein, UniProt Q08379 1-1002) MWPQPRLPPRPAMSEETRQSKLAAAKKKLREYQQRNSPGVPTGAKKKKKIKNGSNPETTTSGGCHSPEDTPKDNAATLQPSDDTVLPGGVPSPGASLTSMAASQNHDADNVPNLMDETKTFSSTESLRQLSQQLNGLVCESATCVNGEGPASSANLKDLESRYQQLAVALDSSYVTNKQLNITIEKLKQQNQEITDQLEEEKKECHQKQGALREQLQVHIQTIGILVSEKAELQTALAHTQHAARQKEGESEDLASRLQYSRRRVGELERALSAVSTQQKKADRYNKELTKERDALRLELYKNTQSNEDLKQEKSELEEKLRVLVTEKAGMQLNLEELQKKLEMTELLLQQFSSRCEAPDANQQLQQAMEERAQLEAHLGQVMESVRQLQMERDKYAENLKGESAMWRQRMQQMSEQVHTLREEKECSMSRVQELETSLAELRNQMAEPPPPEPPAGPSEVEQQLQAEAEHLRKELEGLAGQLQAQVQDNEGLSRLNREQEERLLELERAAELWGEQAEARRQILETMQNDRTTISRALSQNRELKEQLAELQSGFVKLTNENMEITSALQSEQHVKRELGKKLGELQEKLSELKETVELKSQEAQSLQQQRDQYLGHLQQYVAAYQQLTSEKEVLHNQLLLQTQLVDQLQQQEAQGKAVAEMARQELQETQERLEAATQQNQQLRAQLSLMAHPGEGDGLDREEEEDEEEEEEEAVAVPQPMPSIPEDLESREAMVAFFNSAVASAEEEQARLRGQLKEQRVRCRRLAHLLASAQKEPEAAAPAPGTGGDSVCGETHRALQGAMEKLQSRFMELMQEKADLKERVEELEHRCIQLSGETDTIGEYIALYQSQRAVLKERHREKEEYISRLAQDKEEMKVKLLELQELVLRLVGDRNEWHGRFLAAAQNPADEPTSGAPAPQELGAANQQGDLCEVSLAGSVEPAQGEAREGSPRDNPTAQQIMQLLREMQNPRERPGLGSNPCIPFFYRADENDEVKITVI"

# No constants are given. Whether binding was seen depends on the method and setting. For part of these data: Binding calls can cover weak binding; strength is not graded here. For part of these data: In cells and extracts the contact can be indirect.
